Results: patent publication US9057062B2, “Enzyme produced by Arthrobacter globiformis” (MATSUTANI CHEMICAL INDUSTRY CO., LTD., priority 2011, dated 2015)
Some entries share one result that the patent states for a list of compounds. For at least one compound, name, drawing or mass did not settle the structure.

Molecular target: T1, ketose 3-epimerase, purified enzyme (Arthrobacter globiformis, UniProt A0A1L7NQ96)
T1 construct: disrupted with a high-pressure homogenizer to extract the enzyme; made in house; host or cells: Arthrobacter globiformis M30 (native producer); Purified by PEG fractionation, Q-Sepharose ion exchange and RESOURCE PHE hydrophobic chromatography
T1 sequence (A0A1L7NQ96 1-289): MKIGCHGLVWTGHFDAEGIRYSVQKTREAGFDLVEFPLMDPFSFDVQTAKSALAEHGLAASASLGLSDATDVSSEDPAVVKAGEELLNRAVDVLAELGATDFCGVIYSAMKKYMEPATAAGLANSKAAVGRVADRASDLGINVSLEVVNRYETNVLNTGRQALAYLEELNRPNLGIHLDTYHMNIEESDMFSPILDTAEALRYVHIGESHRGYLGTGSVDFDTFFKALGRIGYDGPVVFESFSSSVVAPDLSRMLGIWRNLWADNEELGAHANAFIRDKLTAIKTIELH
Format: biochemical, Arthrobacter globiformis M30

For [Mg+2] [Mg^2+, magnesium ions], the “Increase of activity in the presence of metal ion” value was ≥ 1.3 fold.
